{
  "source": "paper PMC5011719",
  "about": "“The amyloid fold of Gad m 1 epitopes governs IgE binding” (Scientific Reports, 2016)",
  "binders": {"B1": {"name": "rGad m 1 wt (recombinant Gad m 1, Atlantic cod beta-parvalbumin) (natural protein, UniProt A5I874 1-109, looked up)", "chain": "MAFAGILNDADITAALAACKAEGSFDHKAFFTKVGLAAKSSADIKKVFEIIDQDKSDFVEEDELKLFLQNFSAGARALSDAETKVFLKAGDSDGDGKIGVDEFGAMIKA", "notes": "Gad m 1, Atlantic cod beta-parvalbumin; synthetic ORF in pET15b; Monomer in Ca2+, forms amyloids in EDTA; also called rGad wt; not shown: 6XHis, N-terminal, kept"}},
  "key": {"[1]": {"target": "rGad m 1 wt (recombinant Gad m 1, Atlantic cod beta-parvalbumin) (Atlantic cod) (UniProt A5I874)", "test": "ThT fluorescence kinetics of amyloid formation; 150 μM protein in 50 mM Tris-HCl, pH 7.5, 0.1 M NaCl, 5 mM CaCl2, 10 μM ThT, 37 °C, orbital shaking; both purified"}, "[2]": {"target": "rGad m 1 wt (recombinant Gad m 1, Atlantic cod beta-parvalbumin) (Atlantic cod) (UniProt A5I874)", "test": "dynamic light scattering; 50 mM Tris-HCl, pH 7.5, 2 mM Ca2+, 160 μM protein; hydrodynamic radius; both purified"}},
  "note": "These are yes or no findings as the source states them, for the method shown.",
  "data": [
    {"binder": "B1", "values": [
      {"measurement": "binding", "setting": "[1]", "value": "no binding (condition: with 5 mM Ca2+; 150 μM)"},
      {"measurement": "binding", "setting": "[2]", "value": "no binding (condition: with 2 mM Ca2+; 160 μM protein)"}
    ]}
  ]
}
